Source: PubChem BioAssay AID624297 (National Center for Advancing Translational Sciences (NCATS), 2012)
The whole screen tested about 340,000 compounds, of which about 6,200 (1.8%) were called active. Inconclusive results, whose numbers are uncertain, are shown with a selection of clear calls. Calls follow the shape of the dose curve; as a rule, active = well fitted activation curve with a large enough effect; inconclusive = small, poorly fitted or top-dose-only effect; inactive = no such curve, though single readings can be large or run the other way. Potencies beside an inconclusive call are fits to weak or partial responses and may not hold up.
Potency is read from the fitted curve at half-maximal effect.

Assay: A quantitative high throughput screen for small molecules that induce DNA re-replication in SW480 colon adenocarcinoma cells. Also: nearly all actives have a fitted effect of over 55% in size. As to re-replication activation: % of control where 0% means no effect.
Conditions: Hoechst DNA content imaging, 48 h; re-replication activation: at 46.1 µM (top of the series) unless noted
Outline: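 First, 250 cells per well were seeded. Next, compound or vehicle (23 nL) was pinned in, plates sat 48 hr at 37 C. Finally Hoechst was added for 40 min before fluorescence scanning.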
In the case of COC(=O)C1=C(C)N(C)C(C)=C(C(=O)OC)C1c1ccccn1, the “re-replication activation” value is reported as inactive: -4.27%. In the case of CC(C)c1cc(C(=O)N2CCN(C(c3ccccc3)c3ccccc3)CC2)no1, the “re-replication activation” value is reported as inactive: 5.93%. With CC(=O)N/C(=C\c1ccc(Cl)cc1)C(=O)O the Potency was inconclusive: 29.1 µM [activator, single point]. For Cc1ccc(CNC(=O)CCNS(=O)(=O)c2cccs2)cc1, the Potency was inconclusive: 29.1 µM [activator, single point]. For S=C(NCc1ccco1)N/N=C/c1ccccc1Cl, the “re-replication activation” value was inactive: -4.8%. With Nc1c(-c2cccc(Cl)c2)cnc2c(-c3ccccc3)cnn12 the Potency was inconclusive: 16.4 µM [activator, single point]. For CC1CCc2nc3ccc(S(=O)(=O)N4CCC(C(=O)N5CCCCCC5)CC4)cc3c(C(=O)O)c2C1 (stereo not drawn), the Potency was inconclusive: 16.4 µM [activator, partial curve, poor fit]. In the case of CSCCC(NC(=O)c1ccccc1)C(=O)N(C)CC(=O)Nc1ccc(N2CCOCC2)cc1 (stereo not drawn), the “re-replication activation” value is reported as inactive: 0.657%. With C#CCNC(=O)C1=C[C@@H](c2csc3ccccc23)C[C@@H](OCc2ccc(CO)cc2)O1 the Potency was inconclusive: 0.164 µM [activator, full curve, poor fit]. For COc1ccc(NC(=O)c2cc(C)n(Cc3cccs3)c2C)cc1, the Potency was inconclusive: 29.1 µM [activator, single point]. With CCN1CCN(Cc2ccc(NC(=O)c3cc(NC(=O)N4CCNC4=O)cc(OC)c3)cc2C(F)(F)F)CC1 the Potency was inconclusive: 18.4 µM [activator, single point]. For CC(C)c1onc(C(=O)N2CCN(Cc3ccccc3)CC2)c1[N+](=O)[O-], the Potency was inconclusive: 23.1 µM [activator, partial curve, poor fit]. For CCOC(=O)c1ccc(NC(=O)Cn2nc(C)c3ccccc3c2=O)cc1, the re-replication activation was inconclusive: 6.6% [activator]. With CC1=CC2=NC(=O)/C(=C\c3ccc(-c4cccc(Cl)c4)o3)C(=N)N2O1 the “re-replication activation” value was inactive: 17.6%. With O=C(NC1CCCC1)C(c1ccccc1F)N(C(=O)Cc1cccs1)c1ccc2c(c1)OCCO2 (stereo not drawn) the Potency was inconclusive: 18.4 µM [activator, partial curve, poor fit]. With CN(C)c1ccc(N2C(=NC(=O)C3CCCO3)SC3CS(=O)(=O)CC32)cc1 (stereo not drawn) the Potency was inconclusive: 0.231 µM [activator, full curve, poor fit]. For CCN1CCN(C(=S)Nc2cccc(C(F)(F)F)c2)CC1, the “re-replication activation” value was inactive: 2.49%. In the case of CC(C)=CCC1=C(OCC(=O)O)C(=O)c2ccccc2C1=O, the Potency is reported as inconclusive: 4.61 µM [activator, partial curve, poor fit]. With CCC(=O)Nc1ccc(NC(=O)c2ccco2)cc1 the Potency was inconclusive: 0.116 µM [activator, partial curve, poor fit]. With O=C(Nc1ccccc1Br)C(=O)N1CCCC1 the Potency was inconclusive: 16.4 µM [activator, partial curve, poor fit]. With O=c1c2cccc(Cl)c2nc2n1Cc1ccccc1-2 the Potency was inconclusive: 7.31 µM [activator, partial curve, poor fit]. For Cc1ccc(NCc2ccccc2O)cc1, the “re-replication activation” value was inactive: -12.2%. With CC1=C(C(=O)OCC2CCCO2)C(c2cccc(C(F)(F)F)c2)C2=C(CC(c3ccco3)CC2=O)N1 (stereo not drawn) the Potency was inconclusive: 16.4 µM [activator, single point]. In the case of COCCNC(=O)CSc1nc2ccc(N3CCOCC3)cc2c(=O)n1Cc1ccc(OC)cc1, the Potency is reported as inconclusive: 20.6 µM [activator, partial curve, poor fit]. For COc1ccccc1C(=O)N(Cc1ccc(Cl)cc1)C1CCS(=O)(=O)C1 (stereo not drawn), the “re-replication activation” value was inactive: -12%. For O=S(=O)(c1ccc(NC(=S)NN=Cc2ccccc2O)cc1)N1CCCCC1, the Potency was inconclusive: 8.2 µM [activator, partial curve]. For O=C(CNC(=O)c1cnccc1C(F)(F)F)c1cccc(Cl)c1, the Potency was inconclusive: 18.4 µM [activator, single point]. With COc1ccc(-c2nc(=S)[nH][nH]2)cc1OC the “re-replication activation” value was inactive: 17.7%. In the case of CCn1ncc(Br)c1C(=O)Nc1sc2c(c1C(N)=O)CCC2, the Potency is reported as inconclusive: 18.4 µM [activator, single point]. For COCCn1c(COc2ccc(C)cc2)nc2ccccc21, the Potency was inconclusive: 32.6 µM [activator, single point]. In the case of COc1cc(OC)cc(C(=O)NNC(=O)c2ccc(-n3cncn3)c([N+](=O)[O-])c2)c1, the Potency is reported as inconclusive: 29.1 µM [activator, partial curve, poor fit]. With COc1ccc(NC(=O)c2ccco2)cc1NC(=O)c1cc2ccccc2o1 the Potency was inconclusive: 32.6 µM [activator, partial curve, poor fit]. With Cc1cc2nc(C3CCN(Cc4nnnn4Cc4cccs4)CC3)[nH]c2cc1C the Potency was inconclusive: 22.4 µM [activator, single point]. For CCN1CCN(c2ncc3c(n2)CC(c2ccc(OC)c(OC)c2)CC3=O)CC1 (stereo not drawn), the Potency was inconclusive: 20.6 µM [activator, partial curve, poor fit]. In the case of Cc1ccc(CSCCNC(=O)c2cccc([N+](=O)[O-])c2)cc1, the “re-replication activation” value is reported as inactive: -3.91%. With O=C(NC1CCCCC1)C(c1cc2c(cc1[N+](=O)[O-])OCO2)N1CCCCC1 (stereo not drawn) the Potency was inconclusive: 29.1 µM [activator, partial curve, poor fit]. With CC(=O)c1ccc(NC(=O)N[C@@H](Cc2ccccc2)C(=O)O)cc1 the Potency was inconclusive: 18.4 µM [activator, partial curve, poor fit]. For COc1cc2c(c(OC)c1OC)-c1c(cc(OC)c(OC)c1OC)C[C@H](C)[C@H](C)C2, the Potency was inconclusive: 25.9 µM [activator, partial curve, poor fit]. With Cc1ccc(/C=C/C(=O)c2ccccc(=O)c2O)cc1C the Potency was inconclusive: 29.1 µM [activator, single point]. For CC1CCC(C(C)C)C(=O)/C1=C/c1ccc(N)cc1 (stereo not drawn), the “re-replication activation” value was inactive: 5.93%. With O=C(Cc1ccc(F)cc1)c1ccc(O)cc1O the “re-replication activation” value was inactive: 1.37%. In the case of Cc1sc2nc(C(C)C)nc(SCC(=O)N3c4ccccc4CC3C)c2c1C (stereo not drawn), the “re-replication activation” value is reported as inactive: -2.57%. In the case of Cc1ccc(S(=O)(=O)Nc2c(NC3CCCCC3)c3ccccc3oc2=O)cc1, the Potency is reported as inconclusive: 2.91 µM [activator, full curve, poor fit]. For CC(C)c1ccc(NC(=O)C2CC2c2ccccc2)cc1 (stereo not drawn), the Potency was inconclusive: 29.1 µM [activator, single point]. In the case of Oc1ccc(N=Nc2n[nH]c(-c3ccc(Cl)cc3)n2)cc1, the “re-replication activation” value is reported as inactive: 1.14%. With ON=C1c2ccccc2-c2ccccc21 the “re-replication activation” value was inactive: -8.77%. For COc1ccc(C(=O)NN=C(Cc2ccccc2)Cc2ccccc2)cc1OC, the Potency was inconclusive: 29.1 µM [activator, single point]. For Oc1ccc(Br)cc1-c1cc(-c2ccccc2)n[nH]1, the Potency was inconclusive: 18.4 µM [activator, single point]. For O=C(CC1CCCCC1)Nc1ccc(-c2ccc3nncn3n2)cc1, the Potency was inconclusive: 29.1 µM [activator, single point]. For CC(C)(C)OC(=O)N1CCC(NC(=O)c2nc[nH]c2C(=O)NCc2ccccc2)CC1, the “re-replication activation” value was inactive: 4.63%. For COC(=O)c1sc(N)c(C(=O)OC)c1COC(=O)c1c(C)noc1C, the Potency was active: 2.91 µM. For CCCCNC(=S)N(C)/N=C/c1ccc(OCC(=O)Nc2ccc(OC)cc2)c(OC)c1, the Potency was inconclusive: 6.51 µM [activator, single point]. For COc1cccc(C(=O)N2N=C(c3ccccc3)CC2(O)C(F)(F)F)c1 (stereo not drawn), the “re-replication activation” value was inactive: 0.843%. In the case of O=C(NCc1ccco1)c1ccc(OCC2CCCO2)cc1 (stereo not drawn), the “re-replication activation” value is reported as inactive: -9.65%. For N#Cc1c(-c2ccc(Cl)cc2)cc(-c2ccccc2)nc1SCC(=O)O, the “re-replication activation” value was inactive: -4.54%. For O=C1NC2(CCC3(CC2)OCCO3)NN1c1ccccc1, the Potency was inconclusive: 16.4 µM [activator, single point]. In the case of Clc1ccc(-c2nnc3sc(-c4ccc(Br)o4)nn23)c(Cl)c1, the “re-replication activation” value is reported as inactive: 3.22%. For CC(Sc1nc(C(F)(F)F)nc2ccccc12)C(=O)NC1CCCC1 (stereo not drawn), the Potency was inconclusive: 0.092 µM [activator, partial curve, poor fit]. In the case of CCOCCCNC(=O)c1ccc(Cn2c(=S)[nH]c3c([nH]c4ccc(OC)cc43)c2=O)cc1, the Potency is reported as inconclusive: 3.66 µM [activator, partial curve, poor fit]. For COC(=O)c1ccc(CNC(=O)Cn2cnc3c(SC)nc(N)nc32)cc1, the “re-replication activation” value was inactive: -9.59%. With Cc1ccc2nc(-c3ccc(NC(=O)CN4C(=O)NC(C)(c5ccc(OC(F)F)cc5)C4=O)cc3)sc2c1 (stereo not drawn) the Potency was inconclusive: 16.4 µM [activator, single point]. In the case of CCOC(=O)/C=c1/s/c(=C/c2ccccc2OC)c(=O)n1CC(=O)N1CCOCC1, the “re-replication activation” value is reported as inactive: -1.71%. In the case of COc1ccccc1CCNC(=O)CNC(=O)c1ccc2ccccc2c1, the “re-replication activation” value is reported as inactive: 1.6%. In the case of COc1cccc2sc(Nc3nnc(-c4ccc(F)cc4)o3)nc12, the Potency is reported as inconclusive: 29.1 µM [activator, partial curve, poor fit]. In the case of O=C(N/N=C/c1cn(-c2ccccc2)nc1-c1ccc2c(c1)OCCO2)c1ccncc1, the Potency is reported as inconclusive: 5.17 µM [activator, full curve, poor fit]. For CCOC(=O)C(C)N1C(=O)S/C(=C\c2ccc(-c3ccccc3C(=O)O)o2)C1=O (stereo not drawn), the Potency was inconclusive: 11.6 µM [activator, partial curve, poor fit]. For CCOC(=O)C1=C(N)N2C(=O)C(C)SC2=C(C(=O)OCC)C1c1ccc(O)cc1 (stereo not drawn), the “re-replication activation” value was inactive: 0.237%. In the case of CCOC(=O)c1c(C)[nH]c(C(=O)CSc2nnc(-c3cccs3)n2Cc2ccccc2)c1C, the Potency is reported as inconclusive: 29.1 µM [activator, single point].
